These results are taken from patent US20190167756A1 (CITY OF HOPE, published 2019).

Protein sequences, listed by entry. Tags and fused reporters are not part of them. Residues count along the entry.
UniProt Q02248, residues 2-781: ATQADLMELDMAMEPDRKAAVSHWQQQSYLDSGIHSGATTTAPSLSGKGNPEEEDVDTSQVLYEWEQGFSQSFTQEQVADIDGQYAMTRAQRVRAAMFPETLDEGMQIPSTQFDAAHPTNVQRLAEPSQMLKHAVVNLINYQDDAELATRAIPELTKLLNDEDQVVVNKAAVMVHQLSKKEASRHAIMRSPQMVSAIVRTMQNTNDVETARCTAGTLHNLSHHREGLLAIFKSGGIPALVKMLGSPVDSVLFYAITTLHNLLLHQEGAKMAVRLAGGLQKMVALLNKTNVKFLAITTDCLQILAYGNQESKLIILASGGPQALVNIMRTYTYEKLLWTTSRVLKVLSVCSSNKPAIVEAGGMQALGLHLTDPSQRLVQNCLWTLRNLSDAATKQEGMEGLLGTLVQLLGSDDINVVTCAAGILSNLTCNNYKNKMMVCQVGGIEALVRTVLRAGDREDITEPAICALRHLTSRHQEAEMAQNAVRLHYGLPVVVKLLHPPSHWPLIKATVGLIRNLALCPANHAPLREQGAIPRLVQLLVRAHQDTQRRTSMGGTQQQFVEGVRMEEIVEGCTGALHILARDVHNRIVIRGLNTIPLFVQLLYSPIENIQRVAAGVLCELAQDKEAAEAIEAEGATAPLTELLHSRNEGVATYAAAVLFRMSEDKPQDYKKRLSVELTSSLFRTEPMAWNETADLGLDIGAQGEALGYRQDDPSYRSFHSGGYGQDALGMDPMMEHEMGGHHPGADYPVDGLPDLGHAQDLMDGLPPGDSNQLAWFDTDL

These are yes or no findings as the source states them, for the method shown. Binding seen in cells or lysates may run through a third protein. Some binding calls cover weakened binding; strength is not graded here.

In test [1] the target is T1, FOXM1 (mouse) (UniProt O08696).
T1 sequence (looked up): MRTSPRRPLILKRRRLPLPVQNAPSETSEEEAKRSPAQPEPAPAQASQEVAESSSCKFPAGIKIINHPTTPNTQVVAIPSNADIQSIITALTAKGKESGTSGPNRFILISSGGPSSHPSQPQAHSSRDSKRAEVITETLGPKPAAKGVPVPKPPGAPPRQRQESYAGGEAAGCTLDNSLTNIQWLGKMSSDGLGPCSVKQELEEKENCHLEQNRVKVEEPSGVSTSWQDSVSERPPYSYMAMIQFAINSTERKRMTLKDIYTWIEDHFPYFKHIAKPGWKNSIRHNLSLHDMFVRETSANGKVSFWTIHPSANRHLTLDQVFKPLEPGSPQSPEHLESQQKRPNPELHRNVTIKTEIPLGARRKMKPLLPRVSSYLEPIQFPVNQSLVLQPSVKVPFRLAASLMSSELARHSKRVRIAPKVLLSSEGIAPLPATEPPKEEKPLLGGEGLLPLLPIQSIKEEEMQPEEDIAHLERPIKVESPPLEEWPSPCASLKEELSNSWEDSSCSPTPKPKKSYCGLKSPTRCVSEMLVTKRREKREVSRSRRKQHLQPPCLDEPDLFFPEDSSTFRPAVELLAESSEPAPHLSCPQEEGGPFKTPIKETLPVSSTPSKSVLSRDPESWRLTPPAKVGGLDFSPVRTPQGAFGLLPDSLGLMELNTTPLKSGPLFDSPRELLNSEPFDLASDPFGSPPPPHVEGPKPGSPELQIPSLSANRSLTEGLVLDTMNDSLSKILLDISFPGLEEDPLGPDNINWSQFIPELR
The test can be described thus: co-IP of β-catenin, Western blot.

Test [2] has as its target T1, FOXM1 (mouse). Put plainly: co-IP of β-catenin from GT1-7 cell lysates, Western blot for FOXM1 (FIG. 3E); less FOXM1 pulled down in thiostrepton-treated cells. A general note: Immunoblotting shows a protein as a band on a membrane.

For the substance β-catenin (from UniProt Q02248 2-781), the binding entry in the test with FOXM1 (mouse) [1] and with FOXM1 (mouse) [2] was “binds” each time.
